Experimental data taken from US20210161937A1, “ACTIVATION OF MITOCHONDRIAL UNCOUPLING AS A THERAPEUTIC INTERVENTION” (The Trustees of Columbia University in the City of New York, priority 2018, published 2021).
Entries after “also recorded” stand apart in the source; their conditions may differ.

Experiments:
Assay type in all cases: in vivo
Drosophila [1] = test: Lifespan analysis of flies fed drug-supplemented adult medium; conditions: controls or per^01 mutants lacking UAS-transgenes; RU486 during adulthood vs vehicle
Method: Drosophila were reared from embryos in low-density bottles with standard medium containing 3.8% glucose, 1.9% sucrose, 3% yeast nutritional flake (Lab Scientific), 6.5% cornmeal, 0.8% agar, supplemented with 1.5% methylparaben mix (10% methylparaben in ethanol) and 1% propionic acid. Adult flies that eclosed within a 24 hour period were collected and transferred to “adult medium” containing 3.8% glucose, 1.9% sucrose, 8% cornmeal, 1% agar, and either 0.01%, 0.5%, 3%, 5%, or 10% yeast extract (Difco) supplemented with 1.5% methylparaben mix and 1% propionic acid for lifespan and biochemical analysis. All percentages given in wt/v except methylparaben mix, propionic acid given in v/v.
All drugs were supplemented into cooled (65° C.) liquid adult medium (containing 3% yeast extract) following preparation to the following final concentration(s): RU486 100μg/mL. RU486 (Cayman Chemical) dissolved in ethanol was supplemented into medium after eclosion at a final concentration of 100 μg/mL (with the exception of DaGS>UAS-Ucp4c and controls, 5 μg/mL) vehicle controls were supplemented with same volume of ethanol alone. […]
Newly eclosed flies (˜24 hr) were collected and allowed to mate for 48 hr. […] Death was scored every 1-2 days, with live flies transferred to fresh vials every 2-3 days. Statistical significance was determined by log-rank analysis.

Drosophila [2] = test: CO2 respiration assay after mitochondrial drug feeding
Method: Measurement of CO2 production was performed similarly to Yatsenko et al. 2014. Briefly, 10 flies were placed in a sealed pipette tip-capillary respirometer (without anesthesia) containing a small amount of soda-lime. Respirometers were placed capillary side down in dH20 containing 0.1% blue food dye in a sealed TLC chamber placed in a 25° C. incubator. Empty sealed respirometers (containing no flies) were used to subtract blue dye background migration from experimental (fly-containing) samples. Flies were tested for 2 hr between at circadian timepoints, and CO2 production rate was indirectly determined by the amount of liquid movement up the capillary per hour after background subtraction. At least 6 groups of 10 flies were used per genotype for quantification for each condition. For mitochondrial drug feeding experiments, flies were placed on food containing the following compounds for 24 hr: 500 μM Oligomycin, 1 mM rotenone, 5 mM 2,4 DNP, 0.5% stearate, or ethanol vehicle controls.

Drosophila [3] = test: Feeding assay (CAFE assay); conditions: flies fed 2,4 DNP or BHT relative to ethanol vehicle

Compound | lifespan of flies lacking UAS-transgene fed RU486 (Drosophila [1]) | metabolic phenotypes of flies lacking the UAS transgene fed RU486 (Drosophila [2]; RU486 feeding alone, results not shown) | respiration rate (relative CO2 production) in RU486 feeding controls (Drosophila [2]; flies lacking UAS-transgenes fed RU486 or vehicle) | feeding rate / food intake (Drosophila [3]) | feeding rate / food intake (Drosophila [3]; listed as 2,4 DNP)
CC#C[C@]1(O)CC[C@H]2[C@@H]3CCC4=CC(=O)CCC4=C3[C@@H](c3ccc(N(C)C)cc3)C[C@@]21C [RU486, mifepristone] | had no influence on lifespan; also recorded: no effect; also recorded: did not influence lifespan | no effect | not affected | – | –
Cc1cc(C(C)(C)C)c(O)c(C(C)(C)C)c1 [BHT, butylated hydroxytoluene] | – | – | – | did not decrease feeding rate; also recorded: no significant difference between the three groups | –
O=[N+]([O-])c1ccc(O)c([N+](=O)[O-])c1 [DNP, 2,4-dinitrophenol] | – | – | – | did not decrease feeding rate | no significant difference between the three groups
